PubChem BioAssay AID1259405 | NCATS | 2018
Aim: 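Mouse-designed siRNAs used to find CHO productivity engineering targets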 (primary screen). Cell system: Chinese hamster CHO-K1 ovary cells with stable secreted eGFP expression. Reagent: single siRNA against mouse genes, 0.8 pmol siRNA per well (2 µl of 400 nM stock). Timing: 3 days. Measurement: 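Per-well intracellular GFP measured by laser scanning cytometry, plus viability from ATP luminescence, each relative to plate median of non-targeting control wells, in %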. Reading the numbers: GFP, % of control: higher = more GFP per well, higher productivity. Hit rule: 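a knock-down is called active if GFP reaches 120% or more of non-targeting control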.
The deposit covers about 50,000 reagents; this is an unselected part. Of all reagents, about 4,000 (8%) were called active. 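Mouse siRNA library applied to hamster cells; one well for each siRNA.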 The numbers tell different reagents against one gene apart. Not all columns of the deposit are shown. No sequences are given here.

GFP, % of control, by target and reagent
Map3k2 (mitogen-activated protein kinase kinase kinase 2): #1 96.6 inactive
Tmprss7 (transmembrane serine protease 7): #1 57.4 inactive; #2 50.2 inactive; #3 82.4 inactive
Acadm (acyl-Coenzyme A dehydrogenase, medium chain): #1 83.5 inactive; #2 82 inactive; #3 75.6 inactive
Ccdc7a (coiled-coil domain containing 7A): #1 74.7 inactive; #2 75 inactive; #3 82.5 inactive
Cables1 (CDK5 and Abl enzyme substrate 1): #1 77.2 inactive; #2 63.7 inactive; #3 97.7 inactive
Creb3 (cAMP responsive element binding protein 3): #1 34.6 inactive; #2 68.6 inactive; #3 106 inactive
Egflam (EGF-like, fibronectin type III and laminin G domains): #1 41.6 inactive; #2 58.5 inactive; #3 28.6 inactive
Kctd3 (potassium channel tetramerisation domain containing 3): #1 82.2 inactive; #2 57.3 inactive; #3 76.6 inactive
Ankle2 (ankyrin repeat and LEM domain containing 2): #1 84.1 inactive; #2 97.9 inactive; #3 76 inactive
Tnfrsf18 (tumor necrosis factor receptor superfamily, member 18): #1 58.7 inactive; #2 71.3 inactive; #3 46.7 inactive
Taf13 (TATA-box binding protein associated factor 13): #1 83.2 inactive; #2 98.7 inactive; #3 83.1 inactive
Gstt3 (glutathione S-transferase, theta 3): #1 120 active; #2 62.4 inactive; #3 59.6 inactive
Gemin6 (gem nuclear organelle associated protein 6): #1 65.3 inactive; #2 93 inactive; #3 84 inactive
Zfp619 (zinc finger protein 619): #1 57.6 inactive; #2 58.1 inactive
Timm13 (translocase of inner mitochondrial membrane 13): #1 57.9 inactive; #2 49.5 inactive; #3 54.4 inactive
Cd82 (CD82 antigen): #1 78.9 inactive; #2 56.9 inactive; #3 42.8 inactive
Lrrn4 (leucine rich repeat neuronal 4): #1 103 inactive; #2 80.1 inactive; #3 60 inactive
Zcchc18 (zinc finger, CCHC domain containing 18): #1 56.7 inactive; #2 47.1 inactive; #3 118 inactive
Zfp781a (zinc finger protein 781A): #1 93.3 inactive; #2 64.1 inactive; #3 111 inactive
Ddx3x (DEAD box helicase 3, X-linked): #1 44.8 inactive; #2 7.7 inactive; #3 39.6 inactive

Entries listed so far whose gene name begins with Z or z (8):
GFP, % of control, by target and reagent
Zfp619 (zinc finger protein 619): #1 57.6 inactive; #2 58.1 inactive
Zcchc18 (zinc finger, CCHC domain containing 18): #1 56.7 inactive; #2 47.1 inactive; #3 118 inactive
Zfp781a (zinc finger protein 781A): #1 93.3 inactive; #2 64.1 inactive; #3 111 inactive
